PubChem BioAssay AID652243 – Drosophila RNAi Screening Center – 2013
Screen: 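Knock-downs that decrease or increase androgen receptor reporter signal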 (primary screen). System: Drosophila S2R+ cells. Reagents: long dsRNA against Drosophila genes. Time to read-out: 72 h (48 h, then 24 h hormone). Conditions: synthetic androgen R1881 at 10 nM for 24 h. Detection: 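Firefly light from an androgen-responsive reporter and Renilla control light per well, raw and unnormalised, for each of two replicates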. Reading the numbers: firefly reporter light: higher = more light from androgen-responsive reporter; Renilla control light: higher = more constitutive control signal (cell number, transfection). Rule for the call: 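Across duplicate plates, a knock-down whose log firefly/Renilla ratio shifted a set fold down or up from the GFP/LacZ control mean was a hit; the downward cut appears as both 1.5 and 3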. Calls: active = hit: reporter lowered or raised; inactive = no hit.
In all, the deposit lists about 24,000 reagents; this is a random part of those with a known target gene and a result. Of all reagents, 246 (1%) are marked active. 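Plates not normalised; calls are printed but the firefly/Renilla ratio behind them is not deposited; fold cut for lowering reported inconsistently.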 Raw values vary from plate to plate and are shown uncorrected. The record does not give: the amount of reagent.

| gene | DRSC id | firefly reporter light, replicate 1 | firefly reporter light, replicate 2 | Renilla control light, replicate 1 | Renilla control light, replicate 2 | Outcome |
| --- | --- | --- | --- | --- | --- | --- |
| Mitofilin | DRSC16742 | 27983 | 46828 | 4.01e5 | 3.19e5 | inactive |
| ETHR | DRSC15915 | 3.69e5 | 3.82e5 | 3.64e6 | 3.37e6 | inactive |
| ETHR | DRSC29606 | 7.45e5 | 1.17e6 | 1.27e6 | 1.27e6 | inactive |
| CG6006 | DRSC13137 | 89109 | 73236 | 2.03e5 | 2.20e5 | inactive |
| CG6006 | DRSC15946 | 94502 | 44364 | 3.83e5 | 4.24e5 | inactive |
| CG9396 | DRSC16487 | 1.76e5 | 1.84e5 | 2.64e6 | 1.90e6 | inactive |
| CG9396 | DRSC24611 | 8.67e5 | 1.02e6 | 9.50e5 | 1.14e6 | inactive |
| dpr10 (defective proboscis extension response 10) | DRSC09015 | 2.81e5 | 2.45e5 | 7.27e5 | 6.81e5 | inactive |
| dpr10 (defective proboscis extension response 10) | DRSC10159 | 2.97e5 | 2.15e5 | 2.51e6 | 2.28e6 | inactive |
| dpr10 (defective proboscis extension response 10) | DRSC10160 | 1.88e5 | 1.90e5 | 2.03e6 | 1.69e6 | inactive |
| CG32023 | DRSC08946 | 1.35e5 | 1.53e5 | 3.97e5 | 3.39e5 | inactive |
| CR33701 (pseudo) | DRSC37882 | 8.07e5 | 8.06e5 | 1.37e6 | 1.54e6 | inactive |
| CG17982 | DRSC18143 | 2.30e5 | 2.11e5 | 2.43e6 | 1.47e6 | inactive |
| CG31140 | DRSC14603 | 1.23e5 | 1.07e5 | 1.20e6 | 1.26e6 | active |
| CG31140 | DRSC15904 | 1.46e5 | 2.01e5 | 2.81e6 | 2.56e6 | inactive |
| CG31140 | DRSC37077 | – | – | – | – | inactive |
| TM9SF4 (Transmembrane 9 superfamily protein member 4) | DRSC01888 | 1.22e6 | 1.28e6 | 2.03e6 | 1.78e6 | inactive |
| edin (elevated during infection) | DRSC09488 | 1.61e5 | 1.43e5 | 4.74e5 | 4.85e5 | inactive |
| sty (sprouty) | DRSC22994 | 5.45e5 | 6.15e5 | 1.38e6 | 1.78e6 | inactive |
| sty (sprouty) | DRSC25779 | 1.90e5 | 2.54e5 | 5.58e5 | 3.92e5 | inactive |
| Gmd (GDP-mannose 4,6-dehydratase) | DRSC03119 | 1.36e6 | 1.58e6 | 2.20e6 | 2.66e6 | inactive |
| Gmd (GDP-mannose 4,6-dehydratase) | DRSC27937 | 1.05e6 | 5.95e5 | 4.09e6 | 1.54e6 | inactive |
| mbf1 (multiprotein bridging factor 1) | DRSC11365 | 52535 | 44322 | 9.35e5 | 7.04e5 | inactive |
| Ir48c (Ionotropic receptor 48c) | DRSC06154 | 3.03e5 | 2.02e5 | 1.93e6 | 1.75e6 | inactive |

Part of the list above, limited to “firefly reporter light, replicate 1”:
CG6006 [DRSC15946]	94502
CG9396 [DRSC16487]	1.76e5
CG9396 [DRSC24611]	8.67e5
dpr10 (defective proboscis extension response 10) [DRSC09015]	2.81e5
